Taken from: PubChem BioAssay AID1259425 (University of Nebraska Medical Center, 2018)
Screen: 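Compare each knockdown with KSR1 silencing using changes in marker transcripts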 (primary screen). System: HCT116 human colon cancer cells. Reagents: siRNA pool against human genes, 50 nM siRNA. Measurement: 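After 50 nM siRNA pool, branched-DNA assay measures six marker transcripts per well, minus blank, normalised to the geometric mean of two housekeeping transcripts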. Direction: BNIP3L mRNA: higher = more BNIP3L transcript after knockdown; NDRG1 mRNA: higher = more NDRG1 transcript after knockdown; BNIP3 mRNA: higher = more BNIP3 transcript after knockdown; ALDOC mRNA: higher = more ALDOC transcript after knockdown; ACSL5 mRNA: higher = more ACSL5 transcript after knockdown.
The whole screen tested about 14,000 reagents; shown is a part drawn at random. Not given: the time to read-out.

The first 3 entries, ahead of the listing:
| gene knocked down | BNIP3L mRNA, set 1 | NDRG1 mRNA, set 1 | BNIP3 mRNA, set 1 | ALDOC mRNA, set 1 | ACSL5 mRNA, set 1 |
| --- | --- | --- | --- | --- | --- |
| ZNF512 (zinc finger protein 512) | 0.0959 | 0.144 | 0.31 | 0.0374 | 0.154 |
| CALM1 (calmodulin 1) | 0.102 | 0.104 | 0.388 | 0.0342 | 0.14 |
| NRG3 (neuregulin 3) | 0.0665 | 0.0253 | 0.338 | 0.00551 | 0.0889 |

Results, from the start:
| gene knocked down | BNIP3L mRNA, set 1 | NDRG1 mRNA, set 1 | BNIP3 mRNA, set 1 | ALDOC mRNA, set 1 | ACSL5 mRNA, set 1 |
| --- | --- | --- | --- | --- | --- |
| ZNF512 (zinc finger protein 512) | 0.0959 | 0.144 | 0.31 | 0.0374 | 0.154 |
| CALM1 (calmodulin 1) | 0.102 | 0.104 | 0.388 | 0.0342 | 0.14 |
| NRG3 (neuregulin 3) | 0.0665 | 0.0253 | 0.338 | 0.00551 | 0.0889 |
| TXLNA (taxilin alpha) | 0.0572 | 0.121 | 0.229 | 0.0116 | 0.0855 |
| POT1 (protection of telomeres 1) | 0.0496 | 0.108 | 0.204 | 0.00697 | 0.213 |
| BSPRY (B-box and SPRY domain containing) | 0.0699 | 0.501 | 0.305 | 0.0189 | 0.172 |
| EMC9 (ER membrane protein complex subunit 9) | 0.116 | 0.12 | 0.291 | 0.0186 | 0.146 |
| GUCA1B (guanylate cyclase activator 1B) | 0.128 | 0.212 | 0.234 | 0.0226 | 0.231 |
| CNTLN (centlein) | 0.0695 | 0.101 | 0.248 | 0.0598 | 0.184 |
| EIF2S3 (eukaryotic translation initiation factor 2 subunit gamma) | 0.38 | 1.42 | 0.364 | 0.0144 | 0.24 |
| KIR2DL4 | 0.0675 | 0.131 | 0.293 | 0.0218 | 0.123 |
| CLCNKA (chloride voltage-gated channel Ka) | 0.0587 | 0.0834 | 0.272 | 0.0118 | 0.0595 |
| E2F4 (E2F transcription factor 4) | 0.0576 | 0.129 | 0.18 | 0.00958 | 0.117 |
| RNF115 (ring finger protein 115) | 0.0887 | 0.308 | 0.284 | 0.034 | 0.212 |
| ISL1 (ISL LIM homeobox 1) | 0.0721 | 0.206 | 0.273 | 0.00899 | 0.114 |
| HMOX2 (heme oxygenase 2) | 0.115 | 0.215 | 0.227 | 0.0208 | 0.212 |
| MAFB (MAF bZIP transcription factor B) | 0.105 | 0.0633 | 0.28 | 0.0102 | 0.295 |
| BAZ2A (bromodomain adjacent to zinc finger domain 2A) | 0.117 | 0.159 | 0.207 | 0.0114 | 0.127 |
| PHC2 (polyhomeotic homolog 2) | 0.408 | 0.161 | 1.36 | 0.0304 | 0.293 |
| UGT1A10 (UDP glucuronosyltransferase family 1 member A10) | 0.13 | 0.0943 | 0.222 | 0.0315 | 0.13 |
| MYCBPAP (MYCBP associated protein) | 0.522 | 0.266 | 0.596 | 0.0933 | 0.418 |
| ANXA5 (annexin A5) | 0.101 | 0.118 | 0.183 | 0.0057 | 0.229 |
| RAD54L2 (RAD54 like 2) | 0.0801 | 0.0968 | 0.242 | 0.0266 | 0.0868 |
| IP6K3 (inositol hexakisphosphate kinase 3) | 0.154 | 0.398 | 0.592 | 0.0209 | 0.632 |
| RPS6KA6 (ribosomal protein S6 kinase A6) | 0.0871 | 0.15 | 0.318 | 0.00702 | 0.209 |
| CAMK2A (calcium/calmodulin dependent protein kinase II alpha) | 0.106 | 0.136 | 0.436 | 0.00685 | 0.209 |
| RPS17 (ribosomal protein S17) | 0.078 | 0.115 | 0.513 | 0.014 | 0.121 |
| PAEP (progestagen associated endometrial protein) | 0.139 | 0.338 | 0.32 | 0.0682 | 0.149 |
| RPL14 (ribosomal protein L14) | 0.165 | 0.838 | 0.446 | 0.0274 | 0.232 |
| ITPA (inosine triphosphatase) | 0.179 | 0.518 | 0.415 | 0.0162 | 0.25 |
| RET (ret proto-oncogene) | 0.185 | 0.301 | 0.514 | 0.0148 | 0.455 |
| SNAPC1 (small nuclear RNA activating complex polypeptide 1) | 0.0977 | 0.0925 | 0.247 | 0.0422 | 0.0873 |
| OR8G2P (olfactory receptor family 8 subfamily G member 2 pseudogene) | 0.0749 | 0.151 | 0.253 | 0.0245 | 0.11 |
| LRFN4 | 0.0613 | 0.251 | 0.171 | 0.0373 | 0.209 |
